System: ovarian cancer tissue samples
Assay: Identification of tumor associated peptides presented on the cell surface (HLA immunoprecipitation, LC-MS); presentation across tumor types
Parameters: species or system human
Details: tumor types on which the peptide was found presented (HLA immunoprecipitation, LC-MS); abbreviations in table footnote

Substance | Peptide Presentation on tumor types
21 (AVRKPIVLK; listed as Homo sapiens) [compound 21] | AML, BRCA, CCC, CRC, GBC, GBM, GC, HCC, HNSCC, MEL, NHL, NSCLC, OSCAR, PACA, RCC, SCLC, UBC, UEC
609 (LTVAEVQKLLGPHVEGLKA; listed as Homo sapiens) [compound 609] | NSCLC
508 (TVAKTTTTF; listed as Homo sapiens) [compound 508] | UEC
96 (TAFGGFLKY; listed as Homo sapiens) [compound 96] | OSCAR, RCC
481 (GRWEKTDLTY; listed as Homo sapiens) [compound 481] | BRCA, GBC, HNSCC, MEL, NSCLC, OSCAR, PACA, SCLC, UBC, UEC
686 (VRGSLLSEADVRALGGL; listed as Homo sapiens) [compound 686] | NSCLC
547 (EVNKPGVYTR; listed as Homo sapiens) [compound 547] | HCC, UEC
1 (MIPTFTALL; listed as Homo sapiens) [compound 1] | CRC, GBC, NHL, NSCLC, UEC
490 (AEVQKLLGP; listed as Homo sapiens) [compound 490] | HNSCC, NSCLC, OSCAR, UEC
157 (EAMKRLSYI; listed as Homo sapiens) [compound 157] | CCC, HNSCC, PACA
176 (AEIEPKADGSW; listed as Homo sapiens) [compound 176] | CCC, NSCLC, PRCA
27 (VLYGPAGLGK; listed as Homo sapiens) [compound 27] | HCC, HNSCC, NSCLC, OSCAR, PACA, SCLC, UBC, UEC
7 (ALQAFEFRV; listed as Homo sapiens) [compound 7] | GC, GEJC, HNSCC, NSCLC, PACA, SCLC, UBC
419 (HEFGHVLGL; listed as Homo sapiens) [compound 419] | BRCA, CCC, CRC, GC, HNSCC, MEL, NSCLC, OSCAR, PACA, UEC
101 (RVFTSSIKTK; listed as Homo sapiens) [compound 101] | NSCLC, PACA, UEC
459 (KVAGERYVY; listed as Homo sapiens) [compound 459] | BRCA, CCC, CRC, GBM, HNSCC, MEL, NSCLC, OSCAR, PACA, PRCA, SCLC, UBC
496 (EVPTGTTAEVSR; listed as Homo sapiens) [compound 496] | UEC
540 (AGIPAVALW; listed as Homo sapiens) [compound 540] | HCC, NSCLC, OSCAR
539 (IPIPSTGSVEM; listed as Homo sapiens) [compound 539] | CCC, GC, HNSCC, NSCLC, OSCAR, PRCA, SCLC, UBC, UEC
38 (SPHPVTALLTL; listed as Homo sapiens) [compound 38] | PACA, UEC
14 (FYFPTPTVL; listed as Homo sapiens) [compound 14] | GBC, NSCLC
730 (LPGRFVAESAEVL; listed as Homo sapiens) [compound 730] | NSCLC
378 (RPRSPAGQVAA; listed as Homo sapiens) [compound 378] | NHL, PACA, SCLC
18 (KYPVHIYRL; listed as Homo sapiens) [compound 18] | AML, BRCA, GBC, GC, HNSCC, MEL, NHL, NSCLC, OSCAR, PACA, RCC, UBC, UEC
117 (APRLLLLAVL; listed as Homo sapiens) [compound 117] | BRCA, CRC, HNSCC, MEL, NSCLC, OSCAR, PRCA, RCC, SCLC, UBC, UEC

Substance | Peptide Presentation on tumor types
331 (FPHPEMTTSM; listed as Homo sapiens) [compound 331] | UEC
127 (APRAGSQVV; listed as Homo sapiens) [compound 127] | AML, BRCA, CRC, GBM, HCC, HNSCC, MEL, NSCLC, OSCAR, PACA, PRCA, RCC, SCLC, UBC, UEC
79 (SYNEHWNYL; listed as Homo sapiens) [compound 79] | BRCA, CCC, CRC, GBC, GC, HCC, HNSCC, MEL, NHL, NSCLC, OSCAR, PACA, PRCA, RCC, SCLC, UBC, UEC
399 (RELLHLVTL; listed as Homo sapiens) [compound 399] | NSCLC, SCLC, UEC
457 (NAAAAANAQVY; listed as Homo sapiens) [compound 457] | BRCA, NSCLC, UEC
392 (KPIESTLVA; listed as Homo sapiens) [compound 392] | GBM, MEL, NSCLC, UEC
156 (HVKEKFLL; listed as Homo sapiens) [compound 156] | CCC, HNSCC
200 (AESIPTVSF; listed as Homo sapiens) [compound 200] | NSCLC
611 (LTVAEVQKLLGPHVEGL; listed as Homo sapiens) [compound 611] | NSCLC
119 (APLPRPGAVL; listed as Homo sapiens) [compound 119] | MEL, OSCAR
252 (LYQPRASEM; listed as Homo sapiens) [compound 252] | NHL
437 (TEAVVTNEL; listed as Homo sapiens) [compound 437] | CRC, GC, NSCLC, SCLC, UEC
306 (APVIFSHSA; listed as Homo sapiens) [compound 306] | AML, CCC, HCC, MEL, NSCLC, UBC
2 (TLLKALLEI; listed as Homo sapiens) [compound 2] | BRCA, CCC, CRC, GBC, GC, HNSCC, MEL, NHL, NSCLC, OSCAR, PACA, PRCA, RCC, SCLC, UEC
125 (VPVYILLDEM; listed as Homo sapiens) [compound 125] | CCC, GC, HNSCC, UEC
262 (RSRLNPLVQR; listed as Homo sapiens) [compound 262] | HNSCC, NSCLC
454 (AQTDPTTGY; listed as Homo sapiens) [compound 454] | GBM, GC, NSCLC
625 (DALRGLLPVLGQPIIRSIPQG; listed as Homo sapiens) [compound 625] | NSCLC
334 (FPYSEVTTL; listed as Homo sapiens) [compound 334] | NSCLC, SCLC, UEC
653 (LPVLGQPIIRSIPQGIVA; listed as Homo sapiens) [compound 653] | NSCLC
13 (VYTFLSSTL; listed as Homo sapiens) [compound 13] | NSCLC
472 (MRLLVAPL; listed as Homo sapiens) [compound 472] | SCLC, UEC
456 (IPLERPLGEVY; listed as Homo sapiens) [compound 456] | BRCA, UEC
148 (KPYGGSGPL; listed as Homo sapiens) [compound 148] | AML, BRCA, NHL, RCC
474 (AADGGLRASVTL; listed as Homo sapiens) [compound 474] | BRCA, NSCLC, OSCAR

Substance | Peptide Presentation on tumor types
385 (SPALHIGSV; listed as Homo sapiens) [compound 385] | BRCA, GBM, HCC, NSCLC, PRCA, SCLC, UBC, UEC
455 (AAAANAQVY; listed as Homo sapiens) [compound 455] | BRCA, UEC
268 (GLLGLSLRY; listed as Homo sapiens) [compound 268] | PRCA
563 (PNFSGNWKIIRSENFEEL; listed as Homo sapiens) [compound 563] | NSCLC
281 (RAKELEATF; listed as Homo sapiens) [compound 281] | CLL, GC, NSCLC
332 (FPHSEMTTL; listed as Homo sapiens) [compound 332] | NSCLC, PACA
617 (VAEVQKLLGPHVEGL; listed as Homo sapiens) [compound 617] | NSCLC
208 (TEVSRTEAI; listed as Homo sapiens) [compound 208] | NSCLC, UEC
237 (SAMGTISIM; listed as Homo sapiens) [compound 237] | UEC
302 (RVEEVRALL; listed as Homo sapiens) [compound 302] | BRCA, CRC, GBM, UBC
448 (LSQKGYSW; listed as Homo sapiens) [compound 448] | NHL, NSCLC, UBC
3 (ALIYNLVGI; listed as Homo sapiens) [compound 3] | HCC
71 (YLEDTDRNL; listed as Homo sapiens) [compound 71] | AML, BRCA, CCC, CRC, GBC, GC, GEJC, HCC, HNSCC, MEL, NHL, NSCLC, OSCAR, PACA, PRCA, RCC, SCLC, UBC, UEC
628 (DALRGLLPVLGQPIIRSIPQ; listed as Homo sapiens) [compound 628] | NSCLC
618 (VAEVQKLLGPHVEG; listed as Homo sapiens) [compound 618] | NSCLC
393 (ASKPHVEI; listed as Homo sapiens) [compound 393] | CRC
369 (FPHSEMTTV; listed as Homo sapiens) [compound 369] | PACA, UEC
333 (FPHSEMTTVM; listed as Homo sapiens) [compound 333] | NSCLC, SCLC, UEC
69 (TTYEGSITV; listed as Homo sapiens) [compound 69] | NSCLC, UEC
34 (LPRGPLASLL; listed as Homo sapiens) [compound 34] | HNSCC, NSCLC, OSCAR, PACA, SCLC
493 (DTNLEPVTR; listed as Homo sapiens) [compound 493] | UEC
324 (VPYRVVGL; listed as Homo sapiens) [compound 324] | CLL, CRC, GC, MEL, NHL, NSCLC, PRCA, SCLC
264 (AIKVIPTVFK; listed as Homo sapiens) [compound 264] | HNSCC, MEL, NSCLC, RCC, UEC
243 (YASEGVKQV; listed as Homo sapiens) [compound 243] | UEC
